Consider 1 substance from article PMC9455066.

Sequences of proteins named here, by UniProt entry; tags and fusion partners are left off.
UniProt P01106: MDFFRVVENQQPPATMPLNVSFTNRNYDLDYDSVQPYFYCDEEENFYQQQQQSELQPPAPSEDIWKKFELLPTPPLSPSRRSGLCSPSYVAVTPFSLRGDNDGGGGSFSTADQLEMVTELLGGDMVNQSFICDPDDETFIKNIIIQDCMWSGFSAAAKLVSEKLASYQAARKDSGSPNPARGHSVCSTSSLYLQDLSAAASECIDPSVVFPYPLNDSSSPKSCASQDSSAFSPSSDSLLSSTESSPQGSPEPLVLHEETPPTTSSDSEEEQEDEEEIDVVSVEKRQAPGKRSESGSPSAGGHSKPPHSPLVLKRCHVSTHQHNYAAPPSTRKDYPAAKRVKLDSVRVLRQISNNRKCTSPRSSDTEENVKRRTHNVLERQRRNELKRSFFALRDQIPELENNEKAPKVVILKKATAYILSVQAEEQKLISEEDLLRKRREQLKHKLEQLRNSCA

The test concerns the target T1, ubiquitin-like, containing PHD and RING finger domain, 1 (UHRF1) (human (endogenous in MOLT4 and REH)) (UniProt Q96T88).
T1 sequence: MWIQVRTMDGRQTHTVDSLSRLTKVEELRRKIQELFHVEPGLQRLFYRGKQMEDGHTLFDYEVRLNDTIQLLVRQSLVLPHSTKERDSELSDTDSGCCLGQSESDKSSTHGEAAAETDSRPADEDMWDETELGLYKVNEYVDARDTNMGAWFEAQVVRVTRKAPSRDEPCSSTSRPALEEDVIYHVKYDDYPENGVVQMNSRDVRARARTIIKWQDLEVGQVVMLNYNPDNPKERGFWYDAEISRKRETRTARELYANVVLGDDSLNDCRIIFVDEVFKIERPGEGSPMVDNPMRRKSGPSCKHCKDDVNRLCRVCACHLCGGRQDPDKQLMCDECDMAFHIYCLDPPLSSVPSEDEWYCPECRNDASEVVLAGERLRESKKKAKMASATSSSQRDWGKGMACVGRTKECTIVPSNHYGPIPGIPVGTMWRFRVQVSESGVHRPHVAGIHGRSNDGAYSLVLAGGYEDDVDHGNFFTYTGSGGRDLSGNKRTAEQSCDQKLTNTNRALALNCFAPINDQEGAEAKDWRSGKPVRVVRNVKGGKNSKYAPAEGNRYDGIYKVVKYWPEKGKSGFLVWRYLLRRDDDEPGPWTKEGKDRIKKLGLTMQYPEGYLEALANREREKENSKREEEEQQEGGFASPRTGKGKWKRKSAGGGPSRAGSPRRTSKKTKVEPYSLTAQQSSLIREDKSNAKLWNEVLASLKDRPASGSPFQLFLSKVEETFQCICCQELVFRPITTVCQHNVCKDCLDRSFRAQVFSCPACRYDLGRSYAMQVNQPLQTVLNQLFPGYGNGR
Put plainly: co-IP; endogenous proteins; MOLT4 and REH cells lysed in IP Lysis buffer with protease inhibitors at 4 °C; 2 µg anti-UHRF1, anti-MYC or rabbit IgG with Dynabeads protein G overnight at 4 °C; washed three times with PBS; Western blot with anti-UHRF1 and anti-c-Myc. Background: A western blot detects proteins with antibodies after separation by electrophoresis.

Results are given in words; binding and its absence hold for the method and conditions named. Binding seen in cells or lysates may run through a third protein. Some binding calls cover weakened binding; strength is not graded here.

Consider c-Myc (from UniProt P01106 1-454), for which the binding entry was “binds”.
